Test results reported in PMC4887332.
No constants are given. Whether binding was seen depends on the method and setting. In cells and extracts the contact can be indirect. Some binding calls cover weakened binding; strength is not graded here. For part of these data: Where a sequence is shown, tags or fusion partners need not be part of it.

T1: Kv2.1 α-subunit (UniProt P15387)
T1 sequence: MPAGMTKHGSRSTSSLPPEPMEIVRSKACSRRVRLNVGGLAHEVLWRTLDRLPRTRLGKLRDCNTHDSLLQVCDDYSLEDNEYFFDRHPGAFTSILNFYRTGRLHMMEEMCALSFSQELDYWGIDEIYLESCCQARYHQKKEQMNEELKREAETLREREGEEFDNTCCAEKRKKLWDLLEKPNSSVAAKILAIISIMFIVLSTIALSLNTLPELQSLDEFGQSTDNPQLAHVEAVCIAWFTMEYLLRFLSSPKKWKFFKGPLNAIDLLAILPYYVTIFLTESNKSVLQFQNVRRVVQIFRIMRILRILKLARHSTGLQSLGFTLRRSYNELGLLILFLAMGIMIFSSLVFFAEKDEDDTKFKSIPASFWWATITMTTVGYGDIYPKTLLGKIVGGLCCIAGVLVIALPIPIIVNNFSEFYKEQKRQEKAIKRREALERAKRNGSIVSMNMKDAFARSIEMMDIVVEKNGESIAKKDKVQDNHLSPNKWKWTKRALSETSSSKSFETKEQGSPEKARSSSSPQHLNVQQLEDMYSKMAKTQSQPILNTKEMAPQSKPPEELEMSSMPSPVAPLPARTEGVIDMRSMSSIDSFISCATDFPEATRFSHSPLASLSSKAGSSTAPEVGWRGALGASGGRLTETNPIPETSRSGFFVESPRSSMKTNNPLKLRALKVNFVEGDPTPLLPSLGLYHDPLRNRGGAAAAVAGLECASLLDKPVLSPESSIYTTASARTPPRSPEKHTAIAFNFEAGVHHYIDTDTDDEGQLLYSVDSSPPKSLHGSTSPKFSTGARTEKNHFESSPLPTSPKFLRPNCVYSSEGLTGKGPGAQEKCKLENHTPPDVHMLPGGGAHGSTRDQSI

T2: Kv2.1-CsfGFP (UniProt P15387)
T2 sequence: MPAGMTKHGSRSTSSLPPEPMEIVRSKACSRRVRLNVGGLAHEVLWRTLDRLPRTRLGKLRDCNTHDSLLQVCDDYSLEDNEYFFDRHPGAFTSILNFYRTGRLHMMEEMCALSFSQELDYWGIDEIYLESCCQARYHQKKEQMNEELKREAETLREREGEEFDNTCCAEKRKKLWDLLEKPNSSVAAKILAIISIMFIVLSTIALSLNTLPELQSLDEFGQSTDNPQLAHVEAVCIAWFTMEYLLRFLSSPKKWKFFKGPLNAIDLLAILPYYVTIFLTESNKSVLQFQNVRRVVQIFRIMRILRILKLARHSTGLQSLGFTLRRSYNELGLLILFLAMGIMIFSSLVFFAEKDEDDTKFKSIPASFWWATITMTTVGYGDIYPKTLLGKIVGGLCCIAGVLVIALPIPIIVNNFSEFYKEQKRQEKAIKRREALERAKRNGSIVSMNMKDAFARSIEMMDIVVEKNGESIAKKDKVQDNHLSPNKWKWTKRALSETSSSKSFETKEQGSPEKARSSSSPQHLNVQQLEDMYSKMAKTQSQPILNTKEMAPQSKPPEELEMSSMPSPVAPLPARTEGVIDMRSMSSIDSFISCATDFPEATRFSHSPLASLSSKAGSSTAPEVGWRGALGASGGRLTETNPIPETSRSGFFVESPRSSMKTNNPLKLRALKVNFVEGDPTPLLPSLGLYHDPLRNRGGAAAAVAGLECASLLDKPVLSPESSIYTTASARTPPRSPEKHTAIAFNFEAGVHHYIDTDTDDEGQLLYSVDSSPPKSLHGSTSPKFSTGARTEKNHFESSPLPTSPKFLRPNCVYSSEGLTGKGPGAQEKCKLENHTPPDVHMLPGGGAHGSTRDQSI

T3: flotillin-2-CsfGFP (UniProt Q14254)
T3 sequence: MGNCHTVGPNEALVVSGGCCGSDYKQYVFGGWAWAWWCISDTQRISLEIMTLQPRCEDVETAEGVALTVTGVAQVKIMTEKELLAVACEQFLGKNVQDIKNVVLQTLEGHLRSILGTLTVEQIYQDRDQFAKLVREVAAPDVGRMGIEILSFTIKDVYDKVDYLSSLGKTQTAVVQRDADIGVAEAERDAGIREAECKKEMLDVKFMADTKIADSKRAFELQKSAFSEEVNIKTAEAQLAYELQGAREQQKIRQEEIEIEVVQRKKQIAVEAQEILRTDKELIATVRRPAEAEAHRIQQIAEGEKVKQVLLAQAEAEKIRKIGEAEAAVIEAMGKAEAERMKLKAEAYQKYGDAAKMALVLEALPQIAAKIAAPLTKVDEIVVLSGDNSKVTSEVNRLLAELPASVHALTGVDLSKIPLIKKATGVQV


Columns and labels:
Kv2.1 α-subunit = molecular target: T1, Kv2.1 α-subunit; test: co-IP; anti-Kv2.1 antibody linked to dynabeads protein G; supernatant of lysed HEK-293 cells; eluted fraction blotted by Kv2.1 antibody and anti flotillin-1 antibody
Kv2.1-CsfGFP = molecular target: T2, Kv2.1-CsfGFP; test: split reporter; BiFC based on superfolder GFP (NsfGFP and CsfGFP fragments); confocal images of living HEK-293 cells, co-transfected, 24 h after transfection
flotillin-2-CsfGFP = molecular target: T3, flotillin-2-CsfGFP; test: as above

Row | Binder | binding (Kv2.1 α-subunit) | binding (Kv2.1-CsfGFP) | binding (flotillin-2-CsfGFP)
1 | Flotillin-1 (protein, UniProt O75955 1-427) MFFTCGPNEAMVVSGFCRSPPVMVAGGRVFVLPCIQQIQRISLNTLTLNVKSEKVYTRHGVPISVTGIAQVKIQGQNKEMLAAACQMFLGKTEAEIAHIALETLEGHQRAIMAHMTVEEIYKDRQKFSEQVFKVASSDLVNMGISVVSYTLKDIHDDQDYLHSLGKARTAQVQKDARIGEAEAKRDAGIREAKAKQEKVSAQYLSEIEMAKAQRDYELKKAAYDIEVNTRRAQADLAYQLQVAKTKQQIEEQRVQVQVVERAQQVAVQEQEIARREKELEARVRKPAEAERYKLERLAEAEKSQLIMQAEAEAASVRMRGEAEAFAIGARARAEAEQMAKKAEAFQLYQEAAQLDMLLEKLPQVAEEISGPLTSANKITLVSSGSGTMGAAKVTGEVLDILTRLPESVERLTGVSISQVNHKPLRTA | binds |  | 
2 | flotillin-1-NsfGFP (protein, UniProt O75955 1-427) MFFTCGPNEAMVVSGFCRSPPVMVAGGRVFVLPCIQQIQRISLNTLTLNVKSEKVYTRHGVPISVTGIAQVKIQGQNKEMLAAACQMFLGKTEAEIAHIALETLEGHQRAIMAHMTVEEIYKDRQKFSEQVFKVASSDLVNMGISVVSYTLKDIHDDQDYLHSLGKARTAQVQKDARIGEAEAKRDAGIREAKAKQEKVSAQYLSEIEMAKAQRDYELKKAAYDIEVNTRRAQADLAYQLQVAKTKQQIEEQRVQVQVVERAQQVAVQEQEIARREKELEARVRKPAEAERYKLERLAEAEKSQLIMQAEAEAASVRMRGEAEAFAIGARARAEAEQMAKKAEAFQLYQEAAQLDMLLEKLPQVAEEISGPLTSANKITLVSSGSGTMGAAKVTGEVLDILTRLPESVERLTGVSISQVNHKPLRTA |  | binds | binds
